# Reference: the supplement of paper PMC4635364
# Structures can show the parent of a compound that is named as a salt. The list shows a part of the results. Repeats in this data set agree poorly, so a single value says little.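 Cells: ReNCell VM human fetal ventral-midbrain neural progenitors, differentiated mitogen-free. Blinded raters compared doublecortin-stained (early neurons) or tyrosine hydroxylase-stained (dopaminergic neurons) images with untreated wells, where 0 means no change. After repeats and both raters were averaged, compounds scoring 2 or above became hits for retesting.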
# Key:
# ReNCell VM [1] = test: neuronal differentiation score (DCX+ cell fraction vs untreated, manual image score) (score (-3 to 3)); higher = more neuronal differentiation; details: 2 uM, 2 weeks
# ReNCell VM [2] = test: dopaminergic neuron differentiation score (TH+ cell fraction vs untreated, manual image score) (score (0 to 3)); higher = more TH+ dopaminergic neuron differentiation; details: 2 uM, 4 weeks, BDNF 10 ng/ml + GDNF 10 ng/ml
smiles,measurement,setting,value
C[C@]12CCC(=O)C=C1CC[C@@H]1[C@@H]2C(=O)C[C@]2(C)C(=O)CC[C@@H]12 [Adrenosterone],neuronal differentiation score,ReNCell VM [1]; library: Prestwick,inactive: 0
same,dopaminergic neuron differentiation score,ReNCell VM [2]; library: Prestwick,inactive: 0
CN1CCc2cc3c(cc2C1O)OCO3 (stereo not given),neuronal differentiation score,ReNCell VM [1]; library: Spectrum,inactive: 0
same,dopaminergic neuron differentiation score,ReNCell VM [2]; library: Spectrum,inactive: 0
O=c1c2ccccc2[se]n1-c1ccccc1,neuronal differentiation score,ReNCell VM [1]; library: Spectrum,inactive: 0
same,dopaminergic neuron differentiation score,ReNCell VM [2]; library: Spectrum,inactive: 0
CC(C)(C)OC(=O)c1ncn2c1[C@@H]1CCCN1C(=O)c1c(Br)cccc1-2 [Bretazenil],neuronal differentiation score,ReNCell VM [1]; library: Tocriscreen,inactive: 0
same,dopaminergic neuron differentiation score,ReNCell VM [2]; library: Tocriscreen,inactive: 0
COc1ccc(C(=O)O)cc1OC,neuronal differentiation score,ReNCell VM [1]; library: Spectrum,inactive: 0
same,dopaminergic neuron differentiation score,ReNCell VM [2]; library: Spectrum,inactive: 0
CN1C(=O)CCS(=O)(=O)C1c1ccc(Cl)cc1 (stereo not given),neuronal differentiation score,ReNCell VM [1]; library: Spectrum,inactive: 1
same,dopaminergic neuron differentiation score,ReNCell VM [2]; library: Spectrum,inactive: 0
S=C(NC1CCCCC1)N1CCC(c2cnc[nH]2)CC1 [Thioperamide],neuronal differentiation score,ReNCell VM [1]; library: Tocriscreen,inactive: 0
same,dopaminergic neuron differentiation score,ReNCell VM [2]; library: Tocriscreen,inactive: 0
O=C1C=CC[C@@H]2[C@H]3CCCN4CCC[C@@H](CN12)[C@@H]34 [sophocarpine],neuronal differentiation score,ReNCell VM [1]; library: Natural,inactive: 0
same,dopaminergic neuron differentiation score,ReNCell VM [2]; library: Natural,inactive: 0
CN(C)c1ccc(/C=C2\CCCN=C2c2cccnc2)cc1 [DMAB-anabaseine dihydrochloride],neuronal differentiation score,ReNCell VM [1]; library: Tocriscreen,inactive: 0
same,dopaminergic neuron differentiation score,ReNCell VM [2]; library: Tocriscreen,inactive: 0
O=Cc1cn(Cc2ccc(Cl)cc2)c2ccccc12 [Oncrasin 1],neuronal differentiation score,ReNCell VM [1]; library: Tocriscreen,inactive: 0
same,dopaminergic neuron differentiation score,ReNCell VM [2]; library: Tocriscreen,inactive: 0
COC(C)(C)CCC[C@H](C)C/C=C/C(C)=C/C(=O)OC(C)C,neuronal differentiation score,ReNCell VM [1]; library: Spectrum,inactive: 0
same,dopaminergic neuron differentiation score,ReNCell VM [2]; library: Spectrum,inactive: 1
N#CCCN [3-Aminopropionitrile fumarate],neuronal differentiation score,ReNCell VM [1]; library: LOPAC,inactive: 1
same,dopaminergic neuron differentiation score,ReNCell VM [2]; library: LOPAC,inactive: 0
COc1cc(C=C(C#N)C#N)cc(O)c1O [Tyrphostin AG 34],neuronal differentiation score,ReNCell VM [1]; library: LOPAC,inactive: 0
same,dopaminergic neuron differentiation score,ReNCell VM [2]; library: LOPAC,inactive: 0
CP(=O)(O)C1=CCNCC1,neuronal differentiation score,ReNCell VM [1]; library: LOPAC,inactive: 0
same,dopaminergic neuron differentiation score,ReNCell VM [2]; library: LOPAC,inactive: 0
"CCc1c(C(=O)OC)ncc2[nH]c3cc(OC)c(OC)cc3c12 [Methyl 6,7-dimethoxy-4-ethyl-beta-carboline-3-carboxylate]",neuronal differentiation score,ReNCell VM [1]; library: LOPAC,inactive: 1
same,dopaminergic neuron differentiation score,ReNCell VM [2]; library: LOPAC,inactive: 0
C#CCN(C)[C@H](C)Cc1ccccc1,neuronal differentiation score,ReNCell VM [1]; library: Spectrum,inactive: 0
same,dopaminergic neuron differentiation score,ReNCell VM [2]; library: Spectrum,inactive: 0
O=c1n(Cl)c(=O)n(Cl)c(=O)n1Cl,neuronal differentiation score,ReNCell VM [1]; library: Spectrum,inactive: 0
same,dopaminergic neuron differentiation score,ReNCell VM [2]; library: Spectrum,inactive: 0
"NC(N)=NOCC[C@H](N)C(=O)O [Canavanine sulfate monohydrate (L,+)]",neuronal differentiation score,ReNCell VM [1]; library: Phytochemical,inactive: 1
same,dopaminergic neuron differentiation score,ReNCell VM [2]; library: Phytochemical,inactive: 0
O=C1CC[C@@]2(O)[C@H]3Cc4ccc(O)c5c4[C@@]2(CCN3CC2CC2)[C@H]1O5 [Naltrexone hydrochloride dihydrate],neuronal differentiation score,ReNCell VM [1]; library: Prestwick,inactive: 0
same,dopaminergic neuron differentiation score,ReNCell VM [2]; library: Prestwick,inactive: 0
CCNC1(c2cccs2)CCCCC1=O (stereo not given) [Tiletamine hydrochloride],neuronal differentiation score,ReNCell VM [1]; library: Prestwick,inactive: 0
same,dopaminergic neuron differentiation score,ReNCell VM [2]; library: Prestwick,inactive: 0
C[C@@H]1O[C@@H](O[C@@H]2C=C3CC[C@@H]4[C@H](CC[C@]5(C)[C@@H](c6ccc(=O)oc6)CC[C@]45O)[C@@]3(C)CC2)[C@H](O)[C@H](O)[C@H]1O,neuronal differentiation score,ReNCell VM [1]; library: Spectrum,inactive: 0
same,dopaminergic neuron differentiation score,ReNCell VM [2]; library: Spectrum,inactive: 0
COC(=O)C1=CO[C@@H](C)[C@@H]2CN3CC[C@@]4(C(=O)Nc5cc(OC)ccc54)[C@H]3C[C@H]12,neuronal differentiation score,ReNCell VM [1]; library: Phytochemical,inactive: 0
same,dopaminergic neuron differentiation score,ReNCell VM [2]; library: Phytochemical,inactive: 0
CCOC(=O)c1cncn1[C@H](C)c1ccccc1,neuronal differentiation score,ReNCell VM [1]; library: Spectrum,inactive: 0
same,dopaminergic neuron differentiation score,ReNCell VM [2]; library: Spectrum,inactive: 0
NC(=O)c1cc(N2CC2)c([N+](=O)[O-])cc1[N+](=O)[O-],neuronal differentiation score,ReNCell VM [1]; library: LOPAC,inactive: 0
same,dopaminergic neuron differentiation score,ReNCell VM [2]; library: LOPAC,inactive: 0
COc1cc([C@@H]2c3cc4c(cc3[C@@H](O)[C@H]3COC(=O)[C@H]23)OCO4)cc(OC)c1O,neuronal differentiation score,ReNCell VM [1]; library: Spectrum,inactive: 0
same,dopaminergic neuron differentiation score,ReNCell VM [2]; library: Spectrum,inactive: 0
OC[C@@H]1CCCN2CCCC[C@H]12,neuronal differentiation score,ReNCell VM [1]; library: Spectrum,inactive: 0
same,dopaminergic neuron differentiation score,ReNCell VM [2]; library: Spectrum,inactive: 1
COC1=CC=C2[C@H]3Cc4ccc(OC)c5c4[C@@]2(CCN3C)[C@H]1O5 [thebaine],neuronal differentiation score,ReNCell VM [1]; library: Natural,inactive: 0
same,dopaminergic neuron differentiation score,ReNCell VM [2]; library: Natural,inactive: 0
COc1ccc2c3c([nH]c2c1)C(C)=NCC3 [Harmaline hydrochloride dihydrate],neuronal differentiation score,ReNCell VM [1]; library: Phytochemical,inactive: 0
same,dopaminergic neuron differentiation score,ReNCell VM [2]; library: Phytochemical,inactive: 0
COc1cc2c(c(OC)c1OC)-c1ccc(O)c(=O)cc1[C@@H](N)CC2 [Trimethylcolchicinic acid],neuronal differentiation score,ReNCell VM [1]; library: Phytochemical,inactive: 0
same,dopaminergic neuron differentiation score,ReNCell VM [2]; library: Phytochemical,inactive: 0
CC(=O)[C@H]1CC[C@H]2[C@@H]3CC[C@H]4C[C@H](O)CC[C@]4(C)[C@H]3C(=O)C[C@]12C [Alfaxalone],neuronal differentiation score,ReNCell VM [1]; library: Prestwick,inactive: 0
same,dopaminergic neuron differentiation score,ReNCell VM [2]; library: Prestwick,inactive: 0
OC(c1ccccc1)(c1ccccc1)C1CCNCC1 [Azacyclonol],neuronal differentiation score,ReNCell VM [1]; library: Prestwick,inactive: -1
same,dopaminergic neuron differentiation score,ReNCell VM [2]; library: Prestwick,inactive: 0
"Clc1ccc(N2CCN(Cc3c[nH]c4ncccc34)CC2)cc1 [L-745,870 trihydrochloride]",neuronal differentiation score,ReNCell VM [1]; library: Tocriscreen,inactive: 0
same,dopaminergic neuron differentiation score,ReNCell VM [2]; library: Tocriscreen,inactive: 0
CC(C(=O)OC1CC2CCC(C1)N2C)c1ccc(Br)cc1 (stereo not given) [PG-9 maleate],neuronal differentiation score,ReNCell VM [1]; library: Tocriscreen,inactive: 0
same,dopaminergic neuron differentiation score,ReNCell VM [2]; library: Tocriscreen,inactive: 0
CC(=O)O[C@@H]1CC[C@@]2(C)[C@@H](CC[C@@H]3[C@@H]2CC[C@]2(C)C(=O)CC[C@@H]32)C1,neuronal differentiation score,ReNCell VM [1]; library: Spectrum,inactive: 0
same,dopaminergic neuron differentiation score,ReNCell VM [2]; library: Spectrum,inactive: 0
C[C@@H]1CC[C@]2(NC1)O[C@H]1C[C@H]3[C@@H]4CC=C5C[C@@H](O)CC[C@]5(C)[C@H]4CC[C@]3(C)[C@H]1[C@@H]2C [Solasodine],neuronal differentiation score,ReNCell VM [1]; library: Phytochemical,inactive: 0
same,dopaminergic neuron differentiation score,ReNCell VM [2]; library: Phytochemical,inactive: 0

# In a second layout: entries from further up.
smiles	measurement	setting	value
O=c1n(Cl)c(=O)n(Cl)c(=O)n1Cl	dopaminergic neuron differentiation score	ReNCell VM [2]; library: Spectrum	inactive: 0
NC(N)=NOCC[C@H](N)C(=O)O [Canavanine sulfate monohydrate (L,+)]	neuronal differentiation score	ReNCell VM [1]; library: Phytochemical	inactive: 1

# Quoted from the listing for reference:
smiles,measurement,setting,value
N#CCCN [3-Aminopropionitrile fumarate],dopaminergic neuron differentiation score,ReNCell VM [2]; library: LOPAC,inactive: 0
COc1cc(C=C(C#N)C#N)cc(O)c1O [Tyrphostin AG 34],neuronal differentiation score,ReNCell VM [1]; library: LOPAC,inactive: 0
